These are yes or no findings as the source states them, for the method shown. Binding seen in cells or lysates may run through a third protein. Some entries that bind do so weakly or less than the wild type.
Columns and labels:
[1] = molecular target: flag-JMJD3 T1044E (mouse) (UniProt Q5NCY0); assay: co-IP; PMH transfected with flag-JMJD3 plasmids, vehicle or FGF21 for 30 min; PPARα in flag-JMJD3 immunoprecipitates detected by IB; CoIP buffer 50 mM Tris-HCl pH 8.0, 150 mM NaCl, 2 mM EDTA, 0.5% NP-40, 5% glycerol
[2] = molecular target: Flag-mouse JMJD3 (WT-JMJD3) (mouse) (UniProt Q5NCY0); assay: as above
[3] = molecular target: JMJD3 (co-IP with PPARα, Supplementary Figs. 7c, e, f and 8g) (UniProt Q5NCY0); assay: co-IP; nuclear fraction of FGF21-treated cells (Supplementary Fig. 8g)
[4] = molecular target: JMJD3 (co-IP with PPARα, Supplementary Figs. 7c, e, f and 8g) (UniProt Q5NCY0); assay: co-IP; treatment with WY14643, FGF21 or rapamycin (Supplementary Fig. 7c, e, f); cells and precipitating antibody not shown

Chains of the proteins cited; added tags and fusions are not shown. Lines headed by an entry give the natural chain unless they say otherwise; changes in a name come on top.
UniProt Q5NCY0: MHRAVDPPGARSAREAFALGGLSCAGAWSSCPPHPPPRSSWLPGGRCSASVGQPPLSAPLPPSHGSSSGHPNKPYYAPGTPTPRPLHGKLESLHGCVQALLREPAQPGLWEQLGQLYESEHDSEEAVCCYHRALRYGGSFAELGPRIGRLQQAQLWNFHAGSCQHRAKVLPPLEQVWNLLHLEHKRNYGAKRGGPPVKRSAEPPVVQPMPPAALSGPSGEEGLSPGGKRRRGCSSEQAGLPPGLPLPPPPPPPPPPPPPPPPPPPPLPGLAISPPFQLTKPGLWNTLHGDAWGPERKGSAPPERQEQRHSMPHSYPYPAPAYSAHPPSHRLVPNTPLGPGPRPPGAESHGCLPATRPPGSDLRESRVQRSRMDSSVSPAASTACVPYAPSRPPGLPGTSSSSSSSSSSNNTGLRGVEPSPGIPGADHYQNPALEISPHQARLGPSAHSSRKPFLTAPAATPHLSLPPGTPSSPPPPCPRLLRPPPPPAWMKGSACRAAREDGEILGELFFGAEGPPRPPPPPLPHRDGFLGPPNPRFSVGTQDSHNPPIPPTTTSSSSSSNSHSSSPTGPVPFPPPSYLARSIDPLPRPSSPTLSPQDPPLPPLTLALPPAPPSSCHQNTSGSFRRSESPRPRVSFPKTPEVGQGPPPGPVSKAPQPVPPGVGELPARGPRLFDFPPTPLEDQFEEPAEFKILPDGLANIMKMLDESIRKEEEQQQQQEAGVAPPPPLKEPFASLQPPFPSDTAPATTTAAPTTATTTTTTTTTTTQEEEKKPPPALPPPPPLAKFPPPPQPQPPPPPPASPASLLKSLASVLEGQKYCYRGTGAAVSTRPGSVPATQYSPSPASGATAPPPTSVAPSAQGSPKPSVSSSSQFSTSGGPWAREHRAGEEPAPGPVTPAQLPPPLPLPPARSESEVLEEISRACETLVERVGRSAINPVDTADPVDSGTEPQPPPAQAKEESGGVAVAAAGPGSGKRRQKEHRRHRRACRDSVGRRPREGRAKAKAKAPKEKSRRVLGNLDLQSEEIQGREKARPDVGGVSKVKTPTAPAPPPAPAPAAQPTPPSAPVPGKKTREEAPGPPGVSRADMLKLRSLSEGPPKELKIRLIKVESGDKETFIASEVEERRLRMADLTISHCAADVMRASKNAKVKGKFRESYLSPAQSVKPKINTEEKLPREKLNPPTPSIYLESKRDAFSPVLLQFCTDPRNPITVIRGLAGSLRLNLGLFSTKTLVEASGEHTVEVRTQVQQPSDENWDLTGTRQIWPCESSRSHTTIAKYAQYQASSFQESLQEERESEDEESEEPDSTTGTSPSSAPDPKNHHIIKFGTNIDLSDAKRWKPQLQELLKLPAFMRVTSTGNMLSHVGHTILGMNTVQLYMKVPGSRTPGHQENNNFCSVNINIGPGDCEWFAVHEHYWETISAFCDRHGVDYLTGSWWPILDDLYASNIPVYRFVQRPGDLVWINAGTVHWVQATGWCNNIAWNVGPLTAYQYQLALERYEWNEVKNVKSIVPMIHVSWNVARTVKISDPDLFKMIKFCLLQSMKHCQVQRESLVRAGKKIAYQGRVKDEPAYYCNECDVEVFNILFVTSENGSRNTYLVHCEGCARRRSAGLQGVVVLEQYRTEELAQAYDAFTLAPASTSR

Measured: binding

B1: PPARα (receptor, UniProt P23204 1-468)
chain: MVDTESPICPLSPLEADDLESPLSEEFLQEMGNIQEISQSIGEESSGSFGFADYQYLGSCPGSEGSVITDTLSPASSPSSVSCPVIPASTDESPGSALNIECRICGDKASGYHYGVHACEGCKGFFRRTIRLKLVYDKCDRSCKIQKKNRNKCQYCRFHKCLSVGMSHNAIRFGRMPRSEKAKLKAEILTCEHDLKDSETADLKSLGKRIHEAYLKNFNMNKVKARVILAGKTSNNPPFVIHDMETLCMAEKTLVAKMVANGVEDKEAEVRFFHCCQCMSVETVTELTEFAKAIPGFANLDLNDQVTLLKYGVYEAIFTMLSSLMNKDGMLIAYGNGFITREFLKNLRKPFCDIMEPKFDFAMKFNALELDDSDISLFVAAIICCGDRPGLLNIGYIEKLQEGIVHVLKLHLQSNHPDDTFLFPKLLQKMVDLRQLVTEHAQLVQVIKKTESDAALHPLLQEIYRDMY
binds: all assays above

From article PMC7010817
